# Assay results as given in the supplement of paper PMC7666118.
# Amino acid sequences for entries named in this document (tags omitted). A change or cut given only in a name is not applied to a line headed by its entry.
# UniProt Q8NCG7: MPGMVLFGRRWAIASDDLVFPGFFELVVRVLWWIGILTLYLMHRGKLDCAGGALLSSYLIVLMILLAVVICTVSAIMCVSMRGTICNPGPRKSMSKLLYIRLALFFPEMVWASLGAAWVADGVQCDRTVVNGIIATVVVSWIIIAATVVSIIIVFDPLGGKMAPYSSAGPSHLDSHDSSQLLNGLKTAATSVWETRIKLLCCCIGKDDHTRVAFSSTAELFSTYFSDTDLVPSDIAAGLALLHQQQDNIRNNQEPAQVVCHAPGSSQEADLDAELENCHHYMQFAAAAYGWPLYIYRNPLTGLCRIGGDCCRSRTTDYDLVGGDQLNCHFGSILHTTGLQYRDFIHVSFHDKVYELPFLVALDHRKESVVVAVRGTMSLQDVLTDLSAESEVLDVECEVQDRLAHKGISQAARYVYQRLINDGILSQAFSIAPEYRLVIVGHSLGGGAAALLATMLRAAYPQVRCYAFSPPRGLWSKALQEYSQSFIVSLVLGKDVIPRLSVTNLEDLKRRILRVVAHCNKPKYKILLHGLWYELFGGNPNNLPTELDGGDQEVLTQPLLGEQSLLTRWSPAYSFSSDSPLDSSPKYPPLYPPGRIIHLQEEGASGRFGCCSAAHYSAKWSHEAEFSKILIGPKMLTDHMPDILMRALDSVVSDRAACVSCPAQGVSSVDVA
# UniProt P50570: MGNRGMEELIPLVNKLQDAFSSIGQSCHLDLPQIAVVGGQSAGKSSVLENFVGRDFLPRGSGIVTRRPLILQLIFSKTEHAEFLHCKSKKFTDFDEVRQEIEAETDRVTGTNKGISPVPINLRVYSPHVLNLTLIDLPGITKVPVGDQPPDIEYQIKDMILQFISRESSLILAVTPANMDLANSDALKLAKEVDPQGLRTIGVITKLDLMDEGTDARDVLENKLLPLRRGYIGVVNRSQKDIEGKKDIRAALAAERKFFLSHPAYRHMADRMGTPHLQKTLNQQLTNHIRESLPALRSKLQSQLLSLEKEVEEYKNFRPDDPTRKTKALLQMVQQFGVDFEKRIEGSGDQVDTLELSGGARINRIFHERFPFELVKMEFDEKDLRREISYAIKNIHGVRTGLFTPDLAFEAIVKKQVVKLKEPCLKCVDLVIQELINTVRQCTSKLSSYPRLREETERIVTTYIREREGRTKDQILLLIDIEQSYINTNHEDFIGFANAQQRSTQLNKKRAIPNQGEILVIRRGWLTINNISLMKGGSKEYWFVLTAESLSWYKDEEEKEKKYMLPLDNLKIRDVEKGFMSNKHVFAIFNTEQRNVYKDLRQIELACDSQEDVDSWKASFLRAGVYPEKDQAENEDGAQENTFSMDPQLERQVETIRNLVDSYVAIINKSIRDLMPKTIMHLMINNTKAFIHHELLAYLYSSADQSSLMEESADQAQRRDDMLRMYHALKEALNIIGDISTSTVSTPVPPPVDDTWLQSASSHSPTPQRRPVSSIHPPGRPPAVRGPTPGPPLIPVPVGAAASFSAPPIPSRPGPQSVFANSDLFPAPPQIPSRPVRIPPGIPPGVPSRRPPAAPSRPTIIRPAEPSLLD
# UniProt P78368: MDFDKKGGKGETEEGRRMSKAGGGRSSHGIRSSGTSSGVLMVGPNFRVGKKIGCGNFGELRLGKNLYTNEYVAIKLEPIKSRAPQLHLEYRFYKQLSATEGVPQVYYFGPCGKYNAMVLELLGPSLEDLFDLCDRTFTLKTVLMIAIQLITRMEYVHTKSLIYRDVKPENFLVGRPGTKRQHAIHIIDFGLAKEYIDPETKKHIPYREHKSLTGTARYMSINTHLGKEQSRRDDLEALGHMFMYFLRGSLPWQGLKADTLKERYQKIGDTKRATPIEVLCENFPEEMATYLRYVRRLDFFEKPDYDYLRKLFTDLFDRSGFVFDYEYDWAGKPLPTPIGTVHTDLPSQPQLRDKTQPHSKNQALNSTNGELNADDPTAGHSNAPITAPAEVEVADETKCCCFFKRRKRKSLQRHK
# UniProt Q7L2E3: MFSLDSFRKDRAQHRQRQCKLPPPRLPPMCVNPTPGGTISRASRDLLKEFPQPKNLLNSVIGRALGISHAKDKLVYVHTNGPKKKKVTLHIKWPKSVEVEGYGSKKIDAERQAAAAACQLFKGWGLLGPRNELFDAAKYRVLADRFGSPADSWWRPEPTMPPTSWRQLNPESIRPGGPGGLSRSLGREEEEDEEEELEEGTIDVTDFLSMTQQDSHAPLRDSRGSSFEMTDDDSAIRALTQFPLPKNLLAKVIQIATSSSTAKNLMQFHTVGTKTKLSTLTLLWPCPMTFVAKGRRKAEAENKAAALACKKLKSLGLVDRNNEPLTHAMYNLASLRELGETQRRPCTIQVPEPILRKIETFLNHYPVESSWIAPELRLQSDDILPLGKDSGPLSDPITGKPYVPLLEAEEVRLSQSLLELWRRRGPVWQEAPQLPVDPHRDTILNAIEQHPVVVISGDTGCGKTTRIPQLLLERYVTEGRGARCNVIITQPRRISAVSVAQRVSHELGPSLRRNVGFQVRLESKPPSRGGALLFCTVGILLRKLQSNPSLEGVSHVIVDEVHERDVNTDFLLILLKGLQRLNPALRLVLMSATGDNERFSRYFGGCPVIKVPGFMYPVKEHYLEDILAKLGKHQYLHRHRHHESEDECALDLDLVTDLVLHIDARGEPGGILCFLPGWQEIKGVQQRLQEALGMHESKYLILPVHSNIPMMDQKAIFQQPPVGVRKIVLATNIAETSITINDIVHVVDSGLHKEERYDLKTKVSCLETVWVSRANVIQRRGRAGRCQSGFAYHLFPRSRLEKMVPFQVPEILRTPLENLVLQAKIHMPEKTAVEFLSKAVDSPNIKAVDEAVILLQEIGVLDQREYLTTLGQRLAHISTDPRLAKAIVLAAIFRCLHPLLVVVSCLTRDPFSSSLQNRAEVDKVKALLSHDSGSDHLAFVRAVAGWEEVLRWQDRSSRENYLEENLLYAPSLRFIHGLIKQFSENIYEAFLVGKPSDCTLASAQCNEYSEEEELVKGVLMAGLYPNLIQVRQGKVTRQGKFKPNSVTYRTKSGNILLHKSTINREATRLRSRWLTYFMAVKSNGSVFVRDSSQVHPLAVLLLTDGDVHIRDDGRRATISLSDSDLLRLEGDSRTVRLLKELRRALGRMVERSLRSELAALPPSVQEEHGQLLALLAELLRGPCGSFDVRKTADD
# UniProt Q05048: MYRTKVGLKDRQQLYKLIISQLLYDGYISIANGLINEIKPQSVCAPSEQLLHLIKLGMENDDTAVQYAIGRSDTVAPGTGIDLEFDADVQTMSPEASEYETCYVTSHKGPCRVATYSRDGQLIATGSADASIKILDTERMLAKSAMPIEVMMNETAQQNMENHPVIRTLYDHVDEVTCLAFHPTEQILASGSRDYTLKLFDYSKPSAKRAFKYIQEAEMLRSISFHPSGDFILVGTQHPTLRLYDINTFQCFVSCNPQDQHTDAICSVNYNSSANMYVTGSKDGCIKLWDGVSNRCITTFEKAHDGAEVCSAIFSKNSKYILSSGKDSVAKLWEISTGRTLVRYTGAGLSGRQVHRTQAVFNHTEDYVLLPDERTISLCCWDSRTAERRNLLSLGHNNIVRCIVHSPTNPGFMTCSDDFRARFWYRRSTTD
# UniProt Q9Y6V7: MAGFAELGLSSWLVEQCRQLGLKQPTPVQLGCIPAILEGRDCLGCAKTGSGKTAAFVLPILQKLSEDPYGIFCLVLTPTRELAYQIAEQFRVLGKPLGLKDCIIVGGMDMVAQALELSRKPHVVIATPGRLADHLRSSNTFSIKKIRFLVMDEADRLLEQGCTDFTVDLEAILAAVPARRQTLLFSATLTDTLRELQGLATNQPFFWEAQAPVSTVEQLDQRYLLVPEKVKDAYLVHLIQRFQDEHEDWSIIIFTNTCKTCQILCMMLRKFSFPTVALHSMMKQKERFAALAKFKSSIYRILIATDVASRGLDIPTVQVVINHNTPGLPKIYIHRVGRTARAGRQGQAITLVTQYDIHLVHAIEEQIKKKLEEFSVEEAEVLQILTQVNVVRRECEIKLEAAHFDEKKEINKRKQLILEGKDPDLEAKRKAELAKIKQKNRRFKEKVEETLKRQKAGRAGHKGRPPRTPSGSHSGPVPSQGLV
# UniProt Q92499: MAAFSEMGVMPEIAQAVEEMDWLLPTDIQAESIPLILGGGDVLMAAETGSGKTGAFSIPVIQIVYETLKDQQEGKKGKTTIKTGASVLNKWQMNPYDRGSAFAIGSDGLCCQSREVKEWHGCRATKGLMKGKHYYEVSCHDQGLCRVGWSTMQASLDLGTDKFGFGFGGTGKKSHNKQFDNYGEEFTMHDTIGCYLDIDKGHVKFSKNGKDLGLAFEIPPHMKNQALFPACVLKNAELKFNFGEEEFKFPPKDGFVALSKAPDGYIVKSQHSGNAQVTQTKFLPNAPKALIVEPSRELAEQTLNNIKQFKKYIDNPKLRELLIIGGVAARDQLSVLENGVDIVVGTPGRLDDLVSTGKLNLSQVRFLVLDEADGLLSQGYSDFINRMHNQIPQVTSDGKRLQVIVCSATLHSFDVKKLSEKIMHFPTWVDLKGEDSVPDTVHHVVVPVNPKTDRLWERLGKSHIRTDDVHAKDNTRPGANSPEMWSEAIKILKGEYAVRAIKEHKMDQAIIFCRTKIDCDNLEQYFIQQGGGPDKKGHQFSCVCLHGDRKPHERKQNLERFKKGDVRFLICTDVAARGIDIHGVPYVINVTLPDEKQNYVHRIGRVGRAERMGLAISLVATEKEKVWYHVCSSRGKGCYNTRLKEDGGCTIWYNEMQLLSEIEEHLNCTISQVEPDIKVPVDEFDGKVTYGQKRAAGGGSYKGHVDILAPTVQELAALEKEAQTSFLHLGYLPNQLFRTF
# UniProt O75061: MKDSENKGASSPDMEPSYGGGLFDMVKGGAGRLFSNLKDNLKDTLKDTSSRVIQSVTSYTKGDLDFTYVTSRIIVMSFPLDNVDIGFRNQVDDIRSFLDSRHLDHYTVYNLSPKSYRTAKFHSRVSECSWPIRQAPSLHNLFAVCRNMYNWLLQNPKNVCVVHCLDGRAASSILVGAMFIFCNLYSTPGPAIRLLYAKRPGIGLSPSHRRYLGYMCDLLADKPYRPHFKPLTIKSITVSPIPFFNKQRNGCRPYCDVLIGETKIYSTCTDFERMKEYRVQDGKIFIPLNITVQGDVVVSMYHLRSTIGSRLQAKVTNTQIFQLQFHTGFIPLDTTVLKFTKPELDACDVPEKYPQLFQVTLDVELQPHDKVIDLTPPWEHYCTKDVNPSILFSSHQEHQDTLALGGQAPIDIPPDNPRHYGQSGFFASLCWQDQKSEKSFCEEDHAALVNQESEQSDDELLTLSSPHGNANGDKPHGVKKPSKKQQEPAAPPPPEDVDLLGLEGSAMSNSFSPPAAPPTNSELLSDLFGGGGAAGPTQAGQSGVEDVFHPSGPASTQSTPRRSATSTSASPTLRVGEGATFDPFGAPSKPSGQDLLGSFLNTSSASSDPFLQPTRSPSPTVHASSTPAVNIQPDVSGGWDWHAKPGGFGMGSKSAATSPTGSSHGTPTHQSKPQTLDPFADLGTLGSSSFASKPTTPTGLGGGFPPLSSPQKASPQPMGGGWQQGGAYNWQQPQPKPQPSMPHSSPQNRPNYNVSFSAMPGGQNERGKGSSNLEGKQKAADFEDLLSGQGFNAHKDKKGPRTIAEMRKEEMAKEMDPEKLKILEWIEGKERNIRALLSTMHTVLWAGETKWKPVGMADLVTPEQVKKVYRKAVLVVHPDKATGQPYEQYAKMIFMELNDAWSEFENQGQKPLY
# UniProt P35659: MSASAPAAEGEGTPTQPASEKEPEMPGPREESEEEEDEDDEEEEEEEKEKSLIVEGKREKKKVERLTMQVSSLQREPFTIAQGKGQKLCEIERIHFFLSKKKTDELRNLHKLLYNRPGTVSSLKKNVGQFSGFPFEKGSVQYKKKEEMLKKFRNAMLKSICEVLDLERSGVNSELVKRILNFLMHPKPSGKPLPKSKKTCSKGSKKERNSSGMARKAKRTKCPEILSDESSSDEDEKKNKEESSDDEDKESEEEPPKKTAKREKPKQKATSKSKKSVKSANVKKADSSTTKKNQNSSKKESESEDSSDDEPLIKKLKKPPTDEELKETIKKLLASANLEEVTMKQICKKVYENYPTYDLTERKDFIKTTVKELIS
# UniProt P25774, whole entry, looked up: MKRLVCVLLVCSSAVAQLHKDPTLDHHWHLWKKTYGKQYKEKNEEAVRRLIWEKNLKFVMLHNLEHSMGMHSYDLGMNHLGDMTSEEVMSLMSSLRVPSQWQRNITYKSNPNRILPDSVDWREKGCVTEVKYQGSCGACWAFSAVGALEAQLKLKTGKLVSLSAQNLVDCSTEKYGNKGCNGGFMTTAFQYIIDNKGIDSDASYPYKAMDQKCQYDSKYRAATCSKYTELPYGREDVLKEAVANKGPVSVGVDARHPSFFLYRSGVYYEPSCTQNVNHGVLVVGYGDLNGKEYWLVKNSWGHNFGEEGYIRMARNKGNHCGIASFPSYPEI
# The list shows a part of the results.
# Compound: COc1ccc(Cn2ccc3cc(C)c(C(=O)NO)cc32)cc1
# Assay: dose-dependent thermal stabilisation call (2D-TPP, DLPTP, 10% FDR) (binary (1 = stabilised)); higher = stabilised by the compound
# Details: system: HL-60 intact cells; concentration range 0.04-10 µM
# Protocol: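 2D thermal proteome profiling in intact HL-60 cells treated with BRD-3811 (0, 0.04, 0.29, 2, 10 uM) for 90 min at 37 C, then heated 3 min at one of 12 temperatures (42-63.9 C). Soluble protein was quantified by TMT10 MS. The value is the DLPTP call of the paper: dose-dependent thermal stabilisation over all temperatures at 10% FDR (F-test of a dose-response against a flat model); one experiment, one call per tested protein.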
row,Target,dose-dependent thermal stabilisation call
1,DHFR (UniProt P00374),inactive: 0
2,DHCR24 (UniProt Q15392),inactive: 0
3,DHX33 (UniProt Q9H6R0),inactive: 0
4,DAGLB (UniProt Q8NCG7),inactive: 0
5,DOM3Z (UniProt O77932),inactive: 0
6,CXORF15 (UniProt Q9NUQ3),inactive: 0
7,DNM2 (UniProt P50570),inactive: 0
8,CSNK1G2 (UniProt P78368),inactive: 0
9,DHX29 (UniProt Q7Z478),inactive: 0
10,DPY19L1 (UniProt Q2PZI1),inactive: 0
11,DNAJC8 (UniProt O75937),inactive: 0
12,DHX30 (UniProt Q7L2E3),inactive: 0
13,CYP51A1 (UniProt Q16850),inactive: 0
14,CSTF1 (UniProt Q05048),inactive: 0
15,DDX49 (UniProt Q9Y6V7),inactive: 0
16,DHRS11 (UniProt Q6UWP2),inactive: 0
17,DENND4B (UniProt O75064),inactive: 0
18,DDX1 (UniProt Q92499),inactive: 0
19,DCTD (UniProt P32321),inactive: 0
20,DLGAP4 (UniProt Q9Y2H0),inactive: 0
21,DNAJC6 (UniProt O75061),inactive: 0
22,DOCK5 (UniProt Q9H7D0),inactive: 0
23,DCPS (UniProt Q96C86),inactive: 0
24,DHDDS (UniProt Q86SQ9),inactive: 0
25,DEK (UniProt P35659),inactive: 0
26,DEGS1 (UniProt O15121),inactive: 0
27,CTSS (UniProt P25774),inactive: 0

# Part of the list above, bar-delimited.
row | Target | dose-dependent thermal stabilisation call
13 | CYP51A1 (UniProt Q16850) | inactive: 0
17 | DENND4B (UniProt O75064) | inactive: 0
